{"source": "PubChem BioAssay AID686943 | Drosophila RNAi Screening Center | 2013", "purpose": "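Fly genes whose loss alters ERK activation after insulin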 (primary screen)", "cells": "Drosophila S2R+ haemocyte-like cells expressing YFP-tagged ERK (Rolled)", "reagents": "long dsRNA against Drosophila genes", "conditions": "insulin stimulation versus unstimulated cells; dose and duration not given", "measurement": "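Per-plate z-scores of phospho-ERK immunostaining normalised to YFP-tagged ERK, measured with and without insulin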", "scale": "replicate 1, z-score of dpERK with insulin and replicate 2, z-score of dpERK with insulin: higher = more active ERK per ERK-YFP after insulin", "note": "The deposit covers about 23,000 reagents; below is a random part of those that have a named target and a result. 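Extra replicates exist only for a retested subset of genes; insulin dose and duration not given; both raised and lowered dpERK matter.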 Reagents against one gene are numbered here. Further read-outs or replicates are left out here. Not stated in the record: the amount of reagent, the time to read-out."}
{"gene knocked down":"CG42564 (GeneID 40788)","dsRNA no.":1,"replicate 1, z-score of dpERK with insulin":0.5,"replicate 2, z-score of dpERK with insulin":-0.43}
{"gene knocked down":"CG14326 (GeneID 42120)","dsRNA no.":1,"replicate 1, z-score of dpERK with insulin":-0.24,"replicate 2, z-score of dpERK with insulin":-1.29}
{"gene knocked down":"Spn43Ab (GeneID 45040)","dsRNA no.":1,"replicate 1, z-score of dpERK with insulin":-0.48,"replicate 2, z-score of dpERK with insulin":0.11}
{"gene knocked down":"Dtg (GeneID 41558)","dsRNA no.":1,"replicate 1, z-score of dpERK with insulin":0.69,"replicate 2, z-score of dpERK with insulin":-0.21}
{"gene knocked down":"pdm2 (GeneID 34673)","dsRNA no.":1,"replicate 1, z-score of dpERK with insulin":-0.42,"replicate 2, z-score of dpERK with insulin":-0.1}
{"gene knocked down":"pdm2 (GeneID 34673)","dsRNA no.":2,"replicate 1, z-score of dpERK with insulin":2.42,"replicate 2, z-score of dpERK with insulin":1.72}
{"gene knocked down":"pdm2 (GeneID 34673)","dsRNA no.":3,"replicate 1, z-score of dpERK with insulin":0.18,"replicate 2, z-score of dpERK with insulin":0.09}
{"gene knocked down":"Sulf1 (GeneID 53437)","dsRNA no.":1,"replicate 1, z-score of dpERK with insulin":0.34,"replicate 2, z-score of dpERK with insulin":-0.09}
{"gene knocked down":"Sulf1 (GeneID 53437)","dsRNA no.":2,"replicate 1, z-score of dpERK with insulin":-0.65,"replicate 2, z-score of dpERK with insulin":0.25}
{"gene knocked down":"Mp (GeneID 38769)","dsRNA no.":1,"replicate 1, z-score of dpERK with insulin":0.92,"replicate 2, z-score of dpERK with insulin":0.33}
{"gene knocked down":"Mp (GeneID 38769)","dsRNA no.":2,"replicate 1, z-score of dpERK with insulin":0.9,"replicate 2, z-score of dpERK with insulin":0.67}
{"gene knocked down":"Mp (GeneID 38769)","dsRNA no.":3,"replicate 1, z-score of dpERK with insulin":1.21,"replicate 2, z-score of dpERK with insulin":1.14}

Reformatted: 2 of the entries above.
gene knocked down	dsRNA no.	replicate 1, z-score of dpERK with insulin	replicate 2, z-score of dpERK with insulin
Sulf1 (GeneID 53437)	1	0.34	-0.09
Sulf1 (GeneID 53437)	2	-0.65	0.25
